These results are taken from the supplement of paper PMC8728848.

The other results are listed elsewhere or left out.

Common to all, as to test: glycan array binding signal (z-score within array); higher = stronger binding
Common to all, as to settings: glycan notation: IUPAC condensed, linker removed

One test has as its target Gal(b1-4)Glc. The procedure, abridged: (§1)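 Arrays were curated from the Consortium for Functional Glycomics database, 3228 in total, and kept only where the protein sequence was available. Binding is expressed as a within-array Z-score. This score was averaged across arrays of the same protein sequence at different concentrations or buffers and across linkers, and negative values can be read as non-binding.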

The target of the next test is Gal(b1-4)Glc6S. The procedure, abridged: as §1
Another test deals with Gal(b1-4)GlcNAc. The procedure, abridged: as §1
In test [1] the target is Gal(b1-4)GlcNAc(a1-6)Gal(b1-4)GlcNAc. The procedure, abridged:
as §1

The target of another test is Gal(b1-4)GlcNAc(b1-2)Man. The procedure, abridged:
as §1

For test [2], the target named is Gal(b1-4)GlcNAc(b1-2)Man(a1-3)Man(b1-4)GlcNAc(b1-4)GlcNAc. The procedure, abridged: as §1
The target of test [3] is Gal(b1-4)GlcNAc(b1-2)Man(a1-3)[Gal(b1-4)GlcNAc(b1-2)Man(a1-6)]Man(b1-4)GlcNAc(b1-4)GlcNAc. The procedure, abridged: as §1
For test [4], the target named is Gal(b1-4)GlcNAc(b1-2)Man(a1-3)[Gal(b1-4)GlcNAc(b1-2)Man(a1-6)]Man(b1-4)GlcNAc(b1-4)[Fuc(a1-6)]GlcNAc. The procedure, abridged:
as §1

Test [5] has as its target Gal(b1-4)GlcNAc(b1-2)Man(a1-3)[Gal(b1-4)GlcNAc(b1-2)Man(a1-6)][Gal(b1-4)GlcNAc(b1-4)]Man(b1-4)GlcNAc(b1-4)[Fuc(a1-6)]GlcNAc. The procedure, abridged: as §1
Test [6] concerns the target Gal(b1-4)GlcNAc(b1-2)Man(a1-3)[Gal(b1-4)GlcNAc(b1-2)Man(a1-6)][GlcNAc(b1-4)]Man(b1-4)GlcNAc(b1-4)[Fuc(a1-6)]GlcNAc. The procedure, abridged: as §1
In test [7] the target is Gal(b1-4)GlcNAc(b1-2)Man(a1-3)[GlcNAc(b1-2)Man(a1-6)]Man(b1-4)GlcNAc(b1-4)GlcNAc. The procedure, abridged: as §1
In test [8] the target is Gal(b1-4)GlcNAc(b1-2)Man(a1-3)[GlcNAc(b1-4)][Gal(b1-4)GlcNAc(b1-2)Man(a1-6)]Man(b1-4)GlcNAc(b1-4)GlcNAc. The procedure, abridged: as §1
For test [9], the target named is Gal(b1-4)GlcNAc(b1-2)Man(a1-3)[Man(a1-6)]Man(b1-4)GlcNAc(b1-4)GlcNAc. The procedure, abridged:
as §1

The target of test [10] is Gal(b1-4)GlcNAc(b1-2)Man(a1-6)Man(b1-4)GlcNAc(b1-4)GlcNAc. The procedure, abridged:
as §1

The target in test [11] is Gal(b1-4)GlcNAc(b1-2)Man(a1-6)[GlcNAc(b1-2)Man(a1-3)]Man(b1-4)GlcNAc(b1-4)GlcNAc. The procedure, abridged:
as §1

Test [12] concerns the target Gal(b1-4)GlcNAc(b1-2)Man(a1-6)[Man(a1-3)]Man(b1-4)GlcNAc(b1-4)GlcNAc. The procedure, abridged:
as §1

In test [13] the target is Gal(b1-4)GlcNAc(b1-2)[Gal(b1-4)GlcNAc(b1-4)]Man(a1-3)[Gal(b1-4)GlcNAc(b1-2)Man(a1-6)]Man(b1-4)GlcNAc(b1-4)GlcNAc. The procedure, abridged:
as §1

In test [14] the target is Gal(b1-4)GlcNAc(b1-2)[Gal(b1-4)GlcNAc(b1-4)]Man(a1-3)[Gal(b1-4)GlcNAc(b1-2)[Gal(b1-4)GlcNAc(b1-6)]Man(a1-6)]Man(b1-4)GlcNAc(b1-4)GlcNAc. The procedure, abridged:
as §1

Test [15] concerns the target Gal(b1-4)GlcNAc(b1-2)[Gal(b1-4)GlcNAc(b1-4)]Man(a1-3)[GlcNAc(b1-4)][Gal(b1-4)GlcNAc(b1-2)Man(a1-6)]Man(b1-4)GlcNAc(b1-4)GlcNAc. The procedure, abridged:
as §1

In test [16] the target is Gal(b1-4)GlcNAc(b1-2)[Gal(b1-4)GlcNAc(b1-4)]Man(a1-3)[GlcNAc(b1-4)][Gal(b1-4)GlcNAc(b1-2)[Gal(b1-4)GlcNAc(b1-6)]Man(a1-6)]Man(b1-4)GlcNAc(b1-4)GlcNAc. The procedure, abridged: as §1
Test [17] deals with Gal(b1-4)GlcNAc(b1-2)[Gal(b1-4)GlcNAc(b1-6)]Man(a1-6)[Gal(b1-4)GlcNAc(b1-2)Man(a1-3)]Man(b1-4)GlcNAc(b1-4)GlcNAc. The procedure, abridged:
as §1

In test [18] the target is Gal(b1-4)GlcNAc(b1-2)[Gal(b1-4)GlcNAc(b1-6)]Man(a1-6)[Gal(b1-4)GlcNAc(b1-2)Man(a1-3)]Man(b1-4)GlcNAc(b1-4)[Fuc(a1-6)]GlcNAc. The procedure, abridged:
as §1

B1: pilr alpha (protein)
chain: MLYGVTQPKHLSASMGGSVEIPFSFYYPWELATAPDVRISWRRGHFHRQSFYSTRPPSIHKDYVNRLFLNWTEGQKSGFLRISNLQKQDQSVYFCRVELDTRSSGRQQWQSIEGTKLSIT
With B1, the “glycan array binding signal (z-score)” value in the test with Gal(b1-4)Glc is -0.468; in the test with Gal(b1-4)Glc6S, 1.06; with Gal(b1-4)GlcNAc it was -0.271; in [1], -0.083; with Gal(b1-4)GlcNAc(b1-2)Man, -0.025; in test [2] it was 0.149. Further, the “glycan array binding signal (z-score)” value in test [3] was -0.557; in test [4], 0.154; in [5] it was -0.507; in [6], -0.682; in test [7], -0.298; in [8], 0.116. Also, the “glycan array binding signal (z-score)” value in [9] is -0.118; in test [10], -0.364; in test [11], -0.551; in test [12] it was 0.006; in test [13], -0.136; in test [14] it was -0.368. Besides, the “glycan array binding signal (z-score)” value is -0.596 in [15], -0.302 in [16], -0.405 in [17] and 0.01 in test [18].
